# Test results reported in patent US8026228B2, “Estrogenic compounds in combination with progestogenic compounds in hormone-replacement therapy” (Pantarhei Bioscience B.V., priority 2001, dated 2011).
# At least one compound was matched to its structure with a doubt left.
# Test system: morphine-dependent ovariectomized (OVX) rat
# Assay: Hot flush model: naloxone-induced tail skin temperature rise
# Format: in vivo
# Conditions: po 0.3 mg/kg/day, single dose level tested
# Method: The morphine-dependent ovariectomized (OVX) rat was used as a model for postmenopausal hot flush. The potency of estetrol (E4) to prevent tail skin temperature rises, normally accompanied by a drop in core body temperature, after naloxone-induced opiate withdrawal was tested. 17α-ethinyl-estradiol (EE) and vehicle (hydroxy propyl-beta-cyclodextrin 20% wt/vol) served as controls in this bioassay.
# The morphine-dependent ovariectomized (OVX) rat model has been proposed by several investigators (Katovich et al, 1986, Maturitas, 67-76; Merchenthaler et al. 1998, Maturitas, 307-316) as an animal model for the hot flush. During opiate withdrawal with the morphine antagonist naloxone, tail skin temperature (TST) rises and this rise is accompanied by a drop in core body temperature. In addition, the temperature changes are accompanied by surges in LH and a transient tachycardia. These events are similar in magnitude and temporal nature to those observed in the menopausal hot flush.
# Three days prior to the commencement of dosing, animals were anesthetized using a ketamine/xylazine anesthetic mixture and underwent a bilateral ovariectomy. […]
# For the hot flush manipulations the animals were placed in a test cage. […] The tail-skin temperature was recorded until it was stable and the animals were then injected with naloxone HCl (1 mg/kg). […]
smiles,measurement,value
"C#C[C@]1(O)CC[C@H]2[C@@H]3CCc4cc(O)ccc4[C@H]3CC[C@@]21C [EE, 17α-ethinyl estradiol, reference compound]",naloxone-induced tail skin temperature (TST) increases,prevented the naloxone-induced TST increases
